PubChem BioAssay AID1159584 | Peter MacCallum Cancer Centre | 2016

Screen: 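Genes whose loss is lethal only together with E-cadherin loss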 (primary screen)
Cell system: human MCF10A breast epithelial cells, parental and CDH1-null
Knock-down reagent: siRNA against human genes
Detection: 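Cell viability by CellTiter-Glo ATP luminescence, each line scaled to the mean of mock wells across plates, then CDH1-null over parental ratio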
Reading the numbers: CDH1-null / parental viability ratio: higher = CDH1-null cells survive relatively better than parental; CDH1-null viability vs mock: higher = more viable CDH1-null cells
Units: CDH1-null viability vs mock in fraction of mock
Shown is one part, drawn at random, of about 18,000 reagents. Not all columns of the deposit are shown. The record does not give: the amount of reagent, the time to read-out.

EIF4E (eukaryotic translation initiation factor 4E)
- CDH1-null / parental viability ratio: 0.96
- CDH1-null viability vs mock: 0.76

MRPS18B (mitochondrial ribosomal protein S18B)
- CDH1-null / parental viability ratio: 1.02
- CDH1-null viability vs mock: 0.84

CCDC30 (coiled-coil domain containing 30)
- CDH1-null / parental viability ratio: 1.02
- CDH1-null viability vs mock: 1.04

CDKN2C (cyclin dependent kinase inhibitor 2C)
- CDH1-null / parental viability ratio: 1.06
- CDH1-null viability vs mock: 0.76

CCL4L2 (C-C motif chemokine ligand 4 like 2)
- CDH1-null / parental viability ratio: 1.22
- CDH1-null viability vs mock: 1.17

CHD5 (chromodomain helicase DNA binding protein 5)
- CDH1-null / parental viability ratio: 1.04
- CDH1-null viability vs mock: 0.96

CNGA1 (cyclic nucleotide gated channel subunit alpha 1)
- CDH1-null / parental viability ratio: 1.42
- CDH1-null viability vs mock: 0.88

2 entries from above, arranged by “CDH1-null / parental viability ratio”, descending:
MRPS18B (mitochondrial ribosomal protein S18B)
- CDH1-null / parental viability ratio: 1.02
- CDH1-null viability vs mock: 0.84

EIF4E (eukaryotic translation initiation factor 4E)
- CDH1-null / parental viability ratio: 0.96
- CDH1-null viability vs mock: 0.76

Additional reagents follow.
CYP11B2 (cytochrome P450 family 11 subfamily B member 2)
- CDH1-null / parental viability ratio: 1.06
- CDH1-null viability vs mock: 0.92

TAAR1 (trace amine associated receptor 1)
- CDH1-null / parental viability ratio: 0.79
- CDH1-null viability vs mock: 0.84

ST8SIA3 (ST8 alpha-N-acetyl-neuraminide alpha-2,8-sialyltransferase 3)
- CDH1-null / parental viability ratio: 0.82
- CDH1-null viability vs mock: 0.74

CDX1 (caudal type homeobox 1)
- CDH1-null / parental viability ratio: 1.03
- CDH1-null viability vs mock: 1.01

DRC5 (dynein regulatory complex subunit 5)
- CDH1-null / parental viability ratio: 1.06
- CDH1-null viability vs mock: 0.68

TMPRSS13 (transmembrane serine protease 13)
- CDH1-null / parental viability ratio: 0.94
- CDH1-null viability vs mock: 0.6

XPNPEP3 (X-prolyl aminopeptidase 3)
- CDH1-null / parental viability ratio: 1.56
- CDH1-null viability vs mock: 0.53
